Assay results from paper PMC12499416, “ATF3 Deficiency Exacerbates Ageing‐Induced Atherosclerosis and Clinical Intervention Strategy” (Advanced Science, 2025).
Results are given in words; binding and its absence hold for the method and conditions named. Binding seen in cells or lysates may run through a third protein. A result given as binding can be weak or reduced; the word gives no strength. For some assays here: Where a sequence is shown, tags or fusion partners need not be part of it. Blank lines part the entries; values can stand above or below the binder they belong to.

Experiments:
[1] = target: activating transcription factor 3 (ATF3), endogenous in VSMCs (mouse (endogenous in VSMCs)); assay: co-IP; endogenous proteins from VSMC lysates; ATF3 antibody or ATG7 antibody, IgG as control; Western blot
GST-ATF3 fusion protein = assay: pull-down; GST-ATF3 fusion protein as bait, His-ATG7 from HEK-293T cells; only the target purified

binding [1]: binds
B1: autophagy-related 7 (ATG7), endogenous in VSMCs (protein, UniProt Q9D906 1-698)
chain: MGDPGLAKLQFAPFNSALDVGFWHELTQKKLNEYRLDEAPKDIKGYYYNGDSAGLPTRLTLEFSAFDMSASTPAHCCPAMGTLHNTNTLEAFKTADKKLLLEQSANEIWEAIKSGAALENPMLLNKFLLLTFADLKKYHFYYWFCCPALCLPESIPLIRGPVSLDQRLSPKQIQALEHAYDDLCRAEGVTALPYFLFKYDDDTVLVSLLKHYSDFFQGQRTKITVGVYDPCNLAQYPGWPLRNFLVLAAHRWSGSFQSVEVLCFRDRTMQGARDVTHSIIFEVKLPEMAFSPDCPKAVGWEKNQKGGMGPRMVNLSGCMDPKRLAESSVDLNLKLMCWRLVPTLDLDKVVSVKCLLLGAGTLGCNVARTLMGWGVRHVTFVDNAKISYSNPVRQPLYEFEDCLGGGKPKALAAAERLQKIFPGVNARGFNMSIPMPGHPVNFSDVTMEQARRDVEQLEQLIDNHDVIFLLMDTRESRWLPTVIAASKRKLVINAALGFDTFVVMRHGLKKPKQQGAGDLCPSHLVAPADLGSSLFANIPGYKLGCYFCNDVVAPGDSTRDRTLDQQCTVSRPGLAVIAGALAVELMVSVLQHPEGGYAIASSSDDRMNEPPTSLGLVPHQIRGFLSRFDNVLPVSLAFDKCTACSPKVLDQYEREGFTFLAKVFNSSHSFLEDLTGLTLLHQETQAAEIWDMSDEETV

binding (GST-ATF3 fusion protein): binds
B2: His-ATG7 from HEK-293T cells (protein, UniProt Q9D906 1-698)
chain: B1 chain
